These are yes or no findings as the source states them, for the method shown. Sequences can lack the tags named with a protein.

The target in experiment [1] is S. japonicus Rop1, SBP-tagged (S. japonicus). The experiment in a line: pull-down.
Experiment [2] addresses S. japonicus Rop1 with mutated putative AIM motif, SBP-tagged (S. japonicus). The experiment in a line: pull-down.

B1: S. pombe Atg8, GST-tagged (protein, UniProt O94272 1-116)
chain: MRSQFKDDFSFEKRKTESQRIREKYPDRIPVICEKVDKSDIAAIDKKKYLVPSDLTVGQFVYVIRKRIKLSPEKAIFIFIDEILPPTAALMSTIYEEHKSEDGFLYITYSGENTFG
Regarding B1, the binding result in experiment [1] and in experiment [2] was “no binding” in each case.

B2: S. cerevisiae Atg8, His10-tagged (protein, UniProt P38182 1-117)
chain: MKSTFKSEYPFEKRKAESERIADRFKNRIPVICEKAEKSDIPEIDKRKYLVPADLTVGQFVYVIRKRIMLPPEKAIFIFVNDTLPPTAALMSAIYQEHKDKDGFLYVTYSGENTFGR
As for B2, the binding entry in experiment [1] and in experiment [2] was “no binding” throughout.

The values are drawn from doi:10.1101/2022.10.27.514035.
